Laboratory results published in patent publication EP4671262A1 (Daebong LS Co., Ltd., priority 2023, dated 2024).

Test: peptide synthesis
Details: whole synthesis, 220 nm

**Q.** With “AAQPR (Ala-Ala-Gln-Pro-Arg) (printed: Ala-Ala-Gln-Pro-Arg)” as the substance, how does the “purity (crude or final not stated)” value read?
**A.** 95%
